Reference: PubChem BioAssay AID445 (National Center for Advancing Translational Sciences (NCATS), 2006)
This is one part of the list. Further columns of the screen follow, without active or inactive calls. Most of these compounds were active or inconclusive in the main read-out, so they are no random draw. Potencies come from curve fits of mixed quality, noted in brackets.

Experiment: IkB Signaling
Details: ABC-DLBCL IkBa-CBG/CBR dual luciferase ratio (green luciferase fused to IkBa over red control in OCI-Ly3 lymphoma cells), 4 h; measured here: control luc red channel unless noted
Summary of the method: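 Curves were fitted separately to fusion (green), unfused (red) and ratio luminescence, then classed by r2, magnitude and activity. Cells: OCI-Ly3, 4 h compound plus doxycycline at 37C; 10 uM MG-132 defined full response.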

Row | SMILES | AC50
1 | Cc1ccc(N(CC(=O)N2CCN(c3ccccc3F)CC2)S(=O)(=O)c2c(C)noc2C)cc1 | 3.98 µM [falling, partial curve]
2 | COc1ccc(Cc2noc(-c3ccc(C)cc3)n2)cc1 | 20 µM [rising, partial curve, poor fit] [measured here: IkB-luc green channel]
3 | COc1cc2c(cc1OC)C(c1ccc(F)cc1)N(c1cccc(C#N)c1)C(=O)C2 (configuration not stated) | 15.8 µM [falling, single point]
4 | Cc1cccc(Nc2ncnc3nc[nH]c23)c1 | 15.8 µM [falling, partial curve]
5 | O=C(Nc1cccc(C(=O)OCc2cc(=O)n3nc(C4CC4)sc3n2)c1)c1cccc(F)c1 | 0.398 µM [falling, full curve, poor fit]
6 | COc1cc2c(cc1OC)C(COc1ccc3c(C)cc(=O)oc3c1)N(C(=O)c1cccc(C)c1)CC2 (configuration not stated) | 0.398 µM [falling, full curve, poor fit]
7 | CCOc1ccc(-n2c(SCC(=O)NCC3CCCO3)nc3c([nH]c4ccccc43)c2=O)cc1 (configuration not stated) | 1 µM [rising, full curve]
8 | COc1cccc(-c2csc(N3CCN(C(=O)Nc4ccccc4OC)CC3)n2)c1 | 20 µM [falling, partial curve]
9 | O=C(NCCc1ccccc1)c1ccc2c(c1)N(Cc1c(F)cccc1Cl)C(=O)CS2 | 7.94 µM [falling, full curve]
10 | Cn1c(=O)c(=O)n(C)c2cc(S(=O)(=O)N3CCCC3C(=O)Nc3ccccc3F)ccc21 (configuration not stated) | 31.6 µM [falling, single point]
11 | CCCn1nc(C(=O)Nc2cccc(C(=O)OC)c2)c2ccccc2c1=O | 12.6 µM [falling, partial curve]
12 | COc1ccc(NC(=O)CSc2nncn3c2cc2oc(C)cc23)cc1OC | 15.8 µM [falling, partial curve]
13 | Cc1ccc(NC(=O)c2cc3cc(C)ccc3n2C)cc1 | 0.0794 µM [rising, full curve, poor fit]
14 | NC(=O)CSc1oc(-c2ccco2)nc1S(=O)(=O)c1ccc(Cl)cc1 | 10 µM [falling, partial curve]
15 | O=C(NCCc1ccccc1)c1sc2ncccc2c1-n1cccc1 | 25.1 µM [falling, single point]
16 | CCCc1cnc2c(c1SCC(=O)N1CCC(C)CC1)c(=O)n(C)c(=O)n2C | 20 µM [falling, partial curve]
17 | Cc1nn(Cc2ccccc2Cl)c(C)c1NC(=O)c1cc(C(C)C)on1 | 10 µM [falling, partial curve]
18 | CCCN1C(=O)c2[nH]nc(-c3ccccc3O)c2C1c1ccc(OCc2ccccc2)c(OC)c1 (configuration not stated) | 12.6 µM [falling, partial curve]
19 | COc1ccc(C2=NOC(C(=O)N3CCCc4ccccc43)C2)cc1 (configuration not stated) | 25.1 µM [falling, partial curve]
20 | CCCC(=O)Nc1nc2ccc(OC)cc2s1 | 10 µM [falling, partial curve]
21 | Cc1ccc(C(=O)Nc2cccc(OCc3cc(=O)n4c5c(sc4n3)CCCC5)c2)cc1 | 1.26 µM [falling, full curve]

Random excerpt: 2 compounds from above
Row | SMILES | AC50
4 | Cc1cccc(Nc2ncnc3nc[nH]c23)c1 | 15.8 µM [falling, partial curve]
12 | COc1ccc(NC(=O)CSc2nncn3c2cc2oc(C)cc23)cc1OC | 15.8 µM [falling, partial curve]

The list goes on.

Row | SMILES | AC50
22 | COc1ccc(Cl)cc1N(C)C(=O)c1ccc2c(=O)n3c(nc2c1)CCCCC3 | 12.6 µM [falling, partial curve]
23 | Cc1nc2c(-c3ccccc3)c(C)nn2c(C)c1CCC(=O)N1CCN(c2ccc(F)cc2)CC1 | 15.8 µM [falling, partial curve]
24 | COc1cccc(CNC(=O)CCc2c(C)nc3c(c(C)nn3-c3ccc(C)c(C)c3)c2C)c1 | 12.6 µM [falling, partial curve]
25 | Cc1cccc(N2CCN(CCCNc3ncnc4onc(-c5ccc(Cl)cc5)c34)CC2C)c1 (configuration not stated) | 20 µM [falling, single point]
26 | COc1ccc(CCNC(=O)CCn2c(=O)c3ccccc3n(Cc3cc(C)ccc3C)c2=O)cc1OC | 39.8 µM [rising, partial curve]
27 | CCOc1ccccc1CNC(=O)C1CCN(C(=O)N2CC(CC)Oc3ccc(C)cc32)CC1 (configuration not stated) | 20 µM [falling, single point]
28 | O=C(/C=C/c1ccccc1)N1CCN(Cc2cc(=O)n3nc(-c4ccccc4F)sc3n2)CC1 | 15.8 µM [falling, partial curve]
29 | COc1ccc(N2CC(NC(=O)/C=C\c3ccccc3)CC2=O)cc1 (configuration not stated) | 39.8 µM [falling, single point]
30 | O=C(Cn1c(SCCOc2ccccc2)nc2ccccc21)N1CCOCC1 | 31.6 µM [rising, partial curve, poor fit]
31 | Cc1cc(OCCn2cc(C(=O)c3cccs3)c3ccccc32)ccc1Cl | 2 µM [falling, partial curve]
32 | Cc1nnc(SCC(=O)c2cc(C)n(-c3ccc4c(c3)OCO4)c2C)s1 | 31.6 µM [falling, partial curve]
33 | O=C(Nc1ccc2nc(SCC(=O)N3CCOCC3)sc2c1)c1cccc(Cl)c1 | 25.1 µM [falling, partial curve]
34 | Cc1c(C(=O)OCCOc2ccccc2)[nH]c2c1C(=O)CC(c1ccccc1)C2 (configuration not stated) | 0.0316 µM [rising, full curve]
35 | COc1ccc(CCNC(=O)c2nnn(-c3ccc4c(c3)OCCO4)c2N)cc1OC | 20 µM [falling, partial curve]
36 | CCc1nnc(SCC(=O)Nc2ccccc2Cl)nc1CC | 1.58 µM [rising, full curve]
37 | CCc1ccc(NCc2cc3cc4c(cc3n(CC(=O)Nc3cccc(OC)c3)c2=O)OCO4)cc1 | 12.6 µM [falling, partial curve]
38 | CC(C)COc1ccc(C(=O)NCC2(N3CCN(C)CC3)CCCCC2)cc1 | 25.1 µM [falling, partial curve, poor fit]
39 | CCc1ccc2ncc3c(-c4ccccc4)nn(-c4ccccc4)c3c2c1 | 10 µM [falling, partial curve]
40 | COc1ccc(N(C(=O)c2ccc(OC)c(OC)c2)S(=O)(=O)c2ccc(Cl)cc2)cc1 | 7.94 µM [rising, single point]
41 | COc1cccc(NC(=O)CSc2nnc3scc(-c4ccc(Cl)cc4)n23)c1 | 20 µM [falling, partial curve]
42 | C1=C(c2ccc(-c3ccccc3)cc2)Nc2ncnn2C1c1ccco1 (configuration not stated) | 25.1 µM [falling, single point]

Row | SMILES | AC50
43 | O=C(NCc1ccco1)c1cc2sccc2n1Cc1ccc(F)cc1 | 25.1 µM [falling, partial curve]
44 | CC1=C(C)CS(=O)N(c2ccc(S(N)(=O)=O)cc2)C1 (configuration not stated) | 31.6 µM [rising, single point] [measured here: IkB-luc green channel]
45 | Cc1ccc(C2CCN(C(=O)Nc3ccccc3)C2)cc1 (configuration not stated) | 12.6 µM [falling, partial curve]
46 | CCCN(CCC)C(=O)Cn1c(=O)n(-c2cccc(OC)c2)c(=O)c2c3c(sc21)CCCC3 | 12.6 µM [falling, partial curve]
47 | O=C(CCCCn1c(=O)c2ccccc2n(Cc2ccccc2Cl)c1=O)NCCc1ccccc1 | 2.51 µM [rising, partial curve]
48 | O=C(OCc1nc2ccccc2s1)c1cccc(S(=O)(=O)N2CCOCC2)c1 | 10 µM [falling, partial curve]
49 | Cc1csc2nc(COC(=O)c3cccc(NC(=O)COc4ccc(Cl)cc4)c3)cc(=O)n12 | 3.16 µM [falling, full curve]
50 | O=C(OCc1cc(Cl)ccc1OC(F)F)c1cc(S(=O)(=O)O)ccc1O | 10 µM [falling, partial curve]
51 | Cc1ccc2nc(N3CCN(c4cccc(C(F)(F)F)c4)CC3)c3nnnn3c2c1 | 3.98 µM [falling, partial curve]
52 | Cc1cc(C)c2cc(CN(Cc3cccs3)Cc3nnnn3CC3CCCO3)c(=O)[nH]c2c1 (configuration not stated) | 39.8 µM [falling, single point]
53 | CCN(CC)c1ccc(NC(=O)CCS(=O)(=O)c2cc3c(cc2Cl)NC(=O)CO3)c(C)c1 | 10 µM [falling, partial curve]
54 | O=C(Nc1c(C(=O)Nc2ccc3c(c2)OCCO3)cnn1-c1ccccc1Cl)c1ccco1 | 10 µM [falling, partial curve]
55 | Cc1ccc(-c2cc(C(=O)NCc3ccco3)c3ccccc3n2)o1 | 25.1 µM [rising, partial curve] [measured here: IkB-luc green channel]
56 | CCN(C(=O)CSc1nc2ncccc2[nH]1)c1ccc(C(C)C)cc1 | 39.8 µM [falling, single point]
57 | O=C(COc1ccc(Cl)cc1)Nc1nnc(S(=O)(=O)N2CCc3ccccc32)s1 | 12.6 µM [falling, partial curve]
58 | CCOc1ccc(NC(=O)c2cnc(N3CCCC3)nc2C)cc1 | 39.8 µM [falling, partial curve]
59 | COc1ccc(CNc2nc3c(-c4cccc(C)c4)nnn3c3ccccc23)cc1 | 0.794 µM [falling, partial curve]
60 | CCOc1ccc(CCNC(=O)c2cn(C)c3ccc(S(=O)(=O)N4CCCCCC4)cc3c2=O)cc1OCC | 3.98 µM [rising, partial curve]
61 | CC(C)c1ccc(NC(=O)Cn2cc(S(=O)(=O)N3CCN(c4ccccc4F)CC3)c3ccccc3c2=O)cc1 | 2 µM [falling, full curve]
62 | O=C(c1ccc2c(c1)N(Cc1cccc(F)c1)C(=O)c1ccccc1S2)N1CCOCC1 | 15.8 µM [falling, partial curve]

Individual results from above.
`O=C(OCc1cc(Cl)ccc1OC(F)F)c1cc(S(=O)(=O)O)ccc1O` – AC50: 10 µM [falling, partial curve]
`O=C(c1ccc2c(c1)N(Cc1cccc(F)c1)C(=O)c1ccccc1S2)N1CCOCC1` – AC50: 15.8 µM [falling, partial curve]
